Results published in PMC7306619.
These are yes or no findings as the source states them, for the method shown. In cells and extracts the contact can be indirect. A result given as binding can be weak or reduced; the word gives no strength. For some assays here: Sequences can lack the tags named with a protein. One block for each binder: values may come before it.

Tests used:
[1] = target: GST‐OsIAA13 (Oryza sativa); assay: pull-down; GST fusion or GST from bacterial lysate immobilised on GSH-Sepharose 4B and washed; about 4 ug pre-cleared bacterial extract of the 6xHis protein, 1 h at 4 C in EB (150 mM NaCl, 100 mM Tris-Cl pH 7.5, 0.5% NP40, protease inhibitor, MG132), with 5 uM IAA and 50 uM MG132 (for OsDi19-5 also without IAA); anti-His immunoblot; only the target purified
[2] = target: OsIAA13/cYFPC1 (Oryza sativa); assay: split reporter; split EYFP (pSITE-cEYFPC1 and pSITE-nEYFPC1) co-bombarded into onion epidermal cells; confocal microscopy, fluorescence in the nucleus

- binding [1]: binds
B1: 6xHis‐OsDi19‐5 (protein, UniProt Q5JME8 1-202)
chain: MEVEASYSYGFLPSGRHQPYAPPPPHPAEEGELWEYFPCPFCYIEVEVPFICNHLQEEHCFDTRNAVCPLCADNIGRDMGAHFRVQHSHLLKRRKPSRPSSSWPTPSNNSDPYFEGPPQYMMNNRTYQDPAPDPLLSQFICSMAQTDTNSDNTNTEIAVSAVSHDQRLSQRVTLTDDASKLELKERLQRIEFVKEIIMSTIL

- binding [2]: binds
B2: OsDi19‐5/nYFPC1 (protein, UniProt Q5JME8 1-202)
chain: B1 chain
